Test results reported in publication PMC4368516 (PLoS Neglected Tropical Diseases, 2015).
Where a name gives a salt, the structure may show the parent alone.

Chains of the proteins cited; added tags and fusions are not shown.
UniProt P21728, whole entry: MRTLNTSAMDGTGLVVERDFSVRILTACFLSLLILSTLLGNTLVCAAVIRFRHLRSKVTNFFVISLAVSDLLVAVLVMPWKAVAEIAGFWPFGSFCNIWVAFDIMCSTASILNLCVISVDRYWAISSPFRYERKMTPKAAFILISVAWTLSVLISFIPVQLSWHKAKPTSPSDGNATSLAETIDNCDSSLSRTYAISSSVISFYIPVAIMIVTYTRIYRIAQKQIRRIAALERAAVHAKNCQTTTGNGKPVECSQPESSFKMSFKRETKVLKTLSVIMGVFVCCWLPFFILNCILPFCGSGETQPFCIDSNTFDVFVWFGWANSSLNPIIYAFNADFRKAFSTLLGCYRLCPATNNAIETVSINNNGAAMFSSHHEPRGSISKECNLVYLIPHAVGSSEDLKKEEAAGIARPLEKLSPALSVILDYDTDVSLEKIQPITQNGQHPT
UniProt A0A0B5H0X6, entry or part of it: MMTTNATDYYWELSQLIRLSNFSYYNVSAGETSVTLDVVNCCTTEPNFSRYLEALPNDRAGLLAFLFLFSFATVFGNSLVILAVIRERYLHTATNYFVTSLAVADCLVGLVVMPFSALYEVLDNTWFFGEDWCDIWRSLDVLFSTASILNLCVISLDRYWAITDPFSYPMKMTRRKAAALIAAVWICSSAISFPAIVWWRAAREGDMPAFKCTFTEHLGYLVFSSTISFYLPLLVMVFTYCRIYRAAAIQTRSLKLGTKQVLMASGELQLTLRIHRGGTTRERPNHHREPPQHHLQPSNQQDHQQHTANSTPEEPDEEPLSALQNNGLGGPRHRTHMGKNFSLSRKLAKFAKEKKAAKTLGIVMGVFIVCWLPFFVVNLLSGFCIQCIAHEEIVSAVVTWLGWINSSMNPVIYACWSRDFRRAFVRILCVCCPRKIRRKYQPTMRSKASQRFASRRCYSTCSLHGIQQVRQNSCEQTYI

Experiments:
Human D1 = molecular target: T1, Human D1 (Homo sapiens, UniProt P21728); assay: Inhibition of dopamine-stimulated cAMP response (HTRF) in HEK293 cells expressing human D1; assay type: cell-based
T1 construct: expressed in transfected cells

CqDOP2 = CqDOP2 (Culex quinquefasciatus, UniProt A0A0B5H0X6); assay: cell-based
AaDOP2 = molecular target: T2, AaDOP2 (Aedes aegypti, UniProt H6D5H2); assay: cell-based
T2 sequence (H6D5H2 1-476): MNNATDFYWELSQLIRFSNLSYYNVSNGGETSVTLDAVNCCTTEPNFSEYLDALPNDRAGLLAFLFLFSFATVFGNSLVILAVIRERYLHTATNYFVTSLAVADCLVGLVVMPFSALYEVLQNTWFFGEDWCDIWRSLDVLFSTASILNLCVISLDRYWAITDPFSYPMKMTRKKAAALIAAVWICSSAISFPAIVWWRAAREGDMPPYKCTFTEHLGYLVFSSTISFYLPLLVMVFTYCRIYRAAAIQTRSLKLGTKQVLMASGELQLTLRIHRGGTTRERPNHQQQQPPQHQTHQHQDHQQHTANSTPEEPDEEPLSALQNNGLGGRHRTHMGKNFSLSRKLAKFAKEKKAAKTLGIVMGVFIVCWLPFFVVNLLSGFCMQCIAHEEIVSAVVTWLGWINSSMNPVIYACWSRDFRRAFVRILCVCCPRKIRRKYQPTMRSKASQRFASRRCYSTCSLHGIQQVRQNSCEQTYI

IC50 (Human D1): 1890 ± 455 nM
IC50 (CqDOP2): 8.3 ± 0.6 nM
IC50 (AaDOP2): 17 ± 4 nM
SMILES: CN(C)CCC=C1c2ccccc2COc2ccccc21 [Doxepin, doxepin hydrochloride]
